Laboratory results: the supplement of paper PMC10849652
The other results are listed elsewhere or left out.

Protein sequences, listed by entry. Tags and fused reporters are not part of them. Lines headed by an entry give the natural chain unless they say otherwise; changes in a name come on top.
UniProt Q92609: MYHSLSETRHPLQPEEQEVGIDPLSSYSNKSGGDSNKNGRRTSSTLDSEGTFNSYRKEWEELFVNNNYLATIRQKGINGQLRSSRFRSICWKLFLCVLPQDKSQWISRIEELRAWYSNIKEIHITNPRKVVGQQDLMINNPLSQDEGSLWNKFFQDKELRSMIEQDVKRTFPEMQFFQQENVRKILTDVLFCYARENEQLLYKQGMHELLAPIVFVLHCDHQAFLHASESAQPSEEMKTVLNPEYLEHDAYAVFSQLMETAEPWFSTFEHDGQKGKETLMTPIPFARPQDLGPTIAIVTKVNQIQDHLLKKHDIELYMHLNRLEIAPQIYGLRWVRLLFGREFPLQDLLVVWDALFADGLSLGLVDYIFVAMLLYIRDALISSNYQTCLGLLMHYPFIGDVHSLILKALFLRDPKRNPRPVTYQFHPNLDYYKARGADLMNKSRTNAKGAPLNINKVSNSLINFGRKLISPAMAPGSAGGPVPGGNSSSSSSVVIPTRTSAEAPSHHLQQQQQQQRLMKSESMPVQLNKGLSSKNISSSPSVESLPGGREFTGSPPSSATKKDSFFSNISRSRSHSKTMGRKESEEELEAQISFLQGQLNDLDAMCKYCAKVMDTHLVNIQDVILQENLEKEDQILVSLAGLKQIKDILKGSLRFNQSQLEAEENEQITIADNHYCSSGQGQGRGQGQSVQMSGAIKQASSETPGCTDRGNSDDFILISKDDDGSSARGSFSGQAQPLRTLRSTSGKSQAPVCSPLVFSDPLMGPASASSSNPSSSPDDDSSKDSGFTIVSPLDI
UniProt Q14186: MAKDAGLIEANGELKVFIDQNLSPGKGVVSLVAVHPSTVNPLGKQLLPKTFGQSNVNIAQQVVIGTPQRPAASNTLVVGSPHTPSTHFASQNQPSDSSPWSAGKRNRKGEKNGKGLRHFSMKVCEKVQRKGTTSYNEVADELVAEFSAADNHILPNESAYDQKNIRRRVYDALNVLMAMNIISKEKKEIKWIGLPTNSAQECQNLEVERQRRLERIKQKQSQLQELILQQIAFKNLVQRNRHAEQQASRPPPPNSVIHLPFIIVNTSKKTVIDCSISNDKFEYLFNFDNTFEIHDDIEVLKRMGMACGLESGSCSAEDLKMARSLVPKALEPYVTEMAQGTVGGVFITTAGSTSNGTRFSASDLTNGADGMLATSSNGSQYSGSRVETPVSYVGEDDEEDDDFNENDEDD
UniProt Q9UDY2: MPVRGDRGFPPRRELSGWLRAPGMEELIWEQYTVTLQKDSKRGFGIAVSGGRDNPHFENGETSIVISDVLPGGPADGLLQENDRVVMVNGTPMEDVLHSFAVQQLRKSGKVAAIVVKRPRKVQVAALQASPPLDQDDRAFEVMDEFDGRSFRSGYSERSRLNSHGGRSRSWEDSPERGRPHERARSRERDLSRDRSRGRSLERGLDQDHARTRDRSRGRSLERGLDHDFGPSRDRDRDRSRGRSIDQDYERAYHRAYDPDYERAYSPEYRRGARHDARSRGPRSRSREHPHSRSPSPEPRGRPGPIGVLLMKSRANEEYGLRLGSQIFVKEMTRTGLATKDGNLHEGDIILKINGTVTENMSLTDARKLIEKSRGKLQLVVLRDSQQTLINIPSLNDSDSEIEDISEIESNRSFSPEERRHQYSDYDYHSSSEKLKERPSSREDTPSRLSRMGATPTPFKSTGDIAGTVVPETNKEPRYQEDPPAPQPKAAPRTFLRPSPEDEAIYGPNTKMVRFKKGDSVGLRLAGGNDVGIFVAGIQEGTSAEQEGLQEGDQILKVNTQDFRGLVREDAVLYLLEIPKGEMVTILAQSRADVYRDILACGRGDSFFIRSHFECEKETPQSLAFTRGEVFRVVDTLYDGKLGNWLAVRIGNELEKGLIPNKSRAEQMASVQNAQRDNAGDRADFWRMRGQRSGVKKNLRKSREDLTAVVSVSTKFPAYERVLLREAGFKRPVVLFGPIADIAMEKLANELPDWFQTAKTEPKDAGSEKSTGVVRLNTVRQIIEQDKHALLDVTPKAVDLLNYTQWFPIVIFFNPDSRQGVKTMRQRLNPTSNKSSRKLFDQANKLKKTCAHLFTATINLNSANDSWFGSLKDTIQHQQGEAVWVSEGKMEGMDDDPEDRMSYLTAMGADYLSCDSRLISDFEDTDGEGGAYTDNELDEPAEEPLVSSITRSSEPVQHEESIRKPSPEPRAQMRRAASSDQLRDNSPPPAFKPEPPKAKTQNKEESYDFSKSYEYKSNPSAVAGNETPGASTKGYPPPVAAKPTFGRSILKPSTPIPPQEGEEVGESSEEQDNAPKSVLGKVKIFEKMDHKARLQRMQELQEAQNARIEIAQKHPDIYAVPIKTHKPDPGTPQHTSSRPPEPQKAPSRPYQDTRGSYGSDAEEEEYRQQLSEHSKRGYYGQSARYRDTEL
UniProt Q96CG3: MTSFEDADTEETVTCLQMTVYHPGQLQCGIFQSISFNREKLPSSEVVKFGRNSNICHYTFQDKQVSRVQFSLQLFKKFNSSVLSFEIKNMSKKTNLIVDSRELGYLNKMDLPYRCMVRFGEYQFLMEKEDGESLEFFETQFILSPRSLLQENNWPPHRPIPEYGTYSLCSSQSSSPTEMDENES
UniProt Q9P016: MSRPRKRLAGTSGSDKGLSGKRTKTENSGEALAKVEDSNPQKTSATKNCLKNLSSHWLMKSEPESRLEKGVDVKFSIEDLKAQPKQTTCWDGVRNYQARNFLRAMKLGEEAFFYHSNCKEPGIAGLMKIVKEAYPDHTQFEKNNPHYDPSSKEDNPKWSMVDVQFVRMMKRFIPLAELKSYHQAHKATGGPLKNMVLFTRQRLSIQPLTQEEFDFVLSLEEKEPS
UniProt Q5JUR7: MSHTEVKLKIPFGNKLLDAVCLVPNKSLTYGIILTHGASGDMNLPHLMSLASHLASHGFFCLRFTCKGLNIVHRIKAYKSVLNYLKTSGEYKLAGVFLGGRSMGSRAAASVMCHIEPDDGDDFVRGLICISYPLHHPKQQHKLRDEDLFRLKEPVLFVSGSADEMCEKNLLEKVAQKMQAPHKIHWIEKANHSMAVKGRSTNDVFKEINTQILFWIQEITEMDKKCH
UniProt P10646, whole entry, looked up: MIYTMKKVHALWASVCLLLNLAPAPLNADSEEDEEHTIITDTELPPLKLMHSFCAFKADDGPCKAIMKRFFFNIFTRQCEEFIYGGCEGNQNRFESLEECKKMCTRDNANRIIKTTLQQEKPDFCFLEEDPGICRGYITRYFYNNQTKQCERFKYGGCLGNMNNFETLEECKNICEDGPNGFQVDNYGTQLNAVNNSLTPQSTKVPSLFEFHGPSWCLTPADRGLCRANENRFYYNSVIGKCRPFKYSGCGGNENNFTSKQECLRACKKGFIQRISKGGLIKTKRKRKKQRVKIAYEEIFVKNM
UniProt Q13428: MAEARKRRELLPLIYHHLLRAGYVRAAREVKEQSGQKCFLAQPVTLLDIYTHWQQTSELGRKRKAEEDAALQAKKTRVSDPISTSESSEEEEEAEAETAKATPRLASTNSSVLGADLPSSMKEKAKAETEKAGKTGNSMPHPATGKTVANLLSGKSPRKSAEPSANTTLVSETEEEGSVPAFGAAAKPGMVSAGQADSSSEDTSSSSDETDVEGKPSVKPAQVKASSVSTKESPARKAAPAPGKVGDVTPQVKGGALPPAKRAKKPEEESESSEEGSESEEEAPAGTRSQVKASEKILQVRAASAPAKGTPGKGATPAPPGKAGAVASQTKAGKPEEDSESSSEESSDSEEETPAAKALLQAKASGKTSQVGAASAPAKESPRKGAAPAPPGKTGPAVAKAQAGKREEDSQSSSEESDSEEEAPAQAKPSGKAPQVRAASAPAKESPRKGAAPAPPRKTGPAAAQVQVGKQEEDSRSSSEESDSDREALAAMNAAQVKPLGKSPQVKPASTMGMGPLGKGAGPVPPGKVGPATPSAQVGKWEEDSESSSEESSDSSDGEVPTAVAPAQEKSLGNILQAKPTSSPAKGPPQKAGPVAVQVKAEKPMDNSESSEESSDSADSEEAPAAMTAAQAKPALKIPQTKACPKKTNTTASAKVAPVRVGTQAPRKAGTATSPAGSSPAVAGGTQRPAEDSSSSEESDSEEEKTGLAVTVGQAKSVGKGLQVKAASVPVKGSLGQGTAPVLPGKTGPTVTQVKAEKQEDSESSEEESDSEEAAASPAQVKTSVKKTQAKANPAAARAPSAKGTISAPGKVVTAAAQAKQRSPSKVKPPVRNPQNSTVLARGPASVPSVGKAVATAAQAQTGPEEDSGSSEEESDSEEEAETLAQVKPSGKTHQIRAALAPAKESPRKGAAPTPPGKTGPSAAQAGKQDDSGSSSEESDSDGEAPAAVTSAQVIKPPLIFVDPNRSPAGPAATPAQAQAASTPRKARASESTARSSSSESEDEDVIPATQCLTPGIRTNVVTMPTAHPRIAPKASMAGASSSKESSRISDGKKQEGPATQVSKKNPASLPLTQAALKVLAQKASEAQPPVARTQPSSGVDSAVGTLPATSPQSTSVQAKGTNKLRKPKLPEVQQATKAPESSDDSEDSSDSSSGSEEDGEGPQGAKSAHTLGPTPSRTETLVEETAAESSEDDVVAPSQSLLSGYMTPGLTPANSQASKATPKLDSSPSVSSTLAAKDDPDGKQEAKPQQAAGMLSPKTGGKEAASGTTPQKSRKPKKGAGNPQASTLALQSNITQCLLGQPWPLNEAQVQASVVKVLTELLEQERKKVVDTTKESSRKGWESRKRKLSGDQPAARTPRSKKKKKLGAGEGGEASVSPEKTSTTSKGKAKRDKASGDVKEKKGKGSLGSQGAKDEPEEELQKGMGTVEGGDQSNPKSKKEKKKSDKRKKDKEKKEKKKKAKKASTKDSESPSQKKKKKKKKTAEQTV
UniProt Q13488, whole entry, looked up: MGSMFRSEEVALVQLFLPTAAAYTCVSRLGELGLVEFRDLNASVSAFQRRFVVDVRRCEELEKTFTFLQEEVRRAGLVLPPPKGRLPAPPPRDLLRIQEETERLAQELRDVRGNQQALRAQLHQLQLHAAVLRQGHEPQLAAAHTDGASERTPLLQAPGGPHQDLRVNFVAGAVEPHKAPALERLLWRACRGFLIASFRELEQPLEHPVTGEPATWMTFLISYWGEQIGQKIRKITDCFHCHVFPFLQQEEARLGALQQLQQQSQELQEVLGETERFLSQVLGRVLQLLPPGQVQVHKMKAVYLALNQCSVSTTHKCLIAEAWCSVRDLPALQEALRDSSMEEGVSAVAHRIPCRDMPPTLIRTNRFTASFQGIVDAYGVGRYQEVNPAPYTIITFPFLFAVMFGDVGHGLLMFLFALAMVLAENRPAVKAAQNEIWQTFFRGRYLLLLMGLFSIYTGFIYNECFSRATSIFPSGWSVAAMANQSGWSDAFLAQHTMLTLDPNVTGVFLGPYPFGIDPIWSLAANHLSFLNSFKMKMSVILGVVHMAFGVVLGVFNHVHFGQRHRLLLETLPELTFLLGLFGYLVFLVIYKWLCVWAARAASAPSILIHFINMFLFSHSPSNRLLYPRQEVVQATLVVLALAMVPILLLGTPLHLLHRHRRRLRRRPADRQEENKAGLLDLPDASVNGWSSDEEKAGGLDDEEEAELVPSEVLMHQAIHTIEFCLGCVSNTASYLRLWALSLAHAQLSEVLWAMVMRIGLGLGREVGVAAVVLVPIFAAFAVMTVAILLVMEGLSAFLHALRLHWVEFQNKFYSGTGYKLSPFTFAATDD
UniProt Q9H5L6: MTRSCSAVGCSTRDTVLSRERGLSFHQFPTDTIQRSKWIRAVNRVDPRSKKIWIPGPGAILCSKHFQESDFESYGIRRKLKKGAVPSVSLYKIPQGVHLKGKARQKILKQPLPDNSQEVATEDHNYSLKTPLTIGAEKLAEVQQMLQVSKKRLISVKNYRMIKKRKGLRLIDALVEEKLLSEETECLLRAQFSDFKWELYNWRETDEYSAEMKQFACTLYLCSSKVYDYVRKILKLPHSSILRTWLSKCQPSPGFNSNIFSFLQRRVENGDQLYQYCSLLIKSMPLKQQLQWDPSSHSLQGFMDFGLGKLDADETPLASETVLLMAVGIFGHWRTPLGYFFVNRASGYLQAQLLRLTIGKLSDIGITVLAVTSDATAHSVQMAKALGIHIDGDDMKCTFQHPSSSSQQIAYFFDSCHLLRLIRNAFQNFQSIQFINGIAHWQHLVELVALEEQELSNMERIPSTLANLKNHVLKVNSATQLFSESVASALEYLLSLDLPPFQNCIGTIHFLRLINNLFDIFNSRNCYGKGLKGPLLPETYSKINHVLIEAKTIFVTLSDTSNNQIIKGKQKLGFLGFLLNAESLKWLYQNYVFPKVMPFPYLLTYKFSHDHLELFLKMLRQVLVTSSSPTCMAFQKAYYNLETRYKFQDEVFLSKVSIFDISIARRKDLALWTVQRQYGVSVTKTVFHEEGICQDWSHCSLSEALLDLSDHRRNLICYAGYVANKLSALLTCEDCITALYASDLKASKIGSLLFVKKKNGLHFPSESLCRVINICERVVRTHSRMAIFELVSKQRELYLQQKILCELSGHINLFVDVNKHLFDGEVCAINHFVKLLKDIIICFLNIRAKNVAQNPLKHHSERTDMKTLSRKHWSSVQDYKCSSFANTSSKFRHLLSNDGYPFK

compound: COc1cc2nc(-c3cc(F)ccc3O)nc(N[C@@H]3CNC[C@H]3C(C)(C)O)c2cc1OC; experiment: log2 fold change, soluble protein after heating vs DMSO (PISA); higher = thermal stabilisation; K562 cells, 10 uM, 30 min; active = over 0.2 and 3.5 SD of the protein, either way, in both replicates (recomputed)
Procedure, shortened: (§1)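 K562 cells at 2×10^6 cells/mL were given 10 μM compound for 30 min. Aliquots then went through 3 min of heating across 48°C-58°C, were pooled, and were extracted in PBS with 0.5% NP-40 at 4°C, and the supernatant after 21,000xg for 90 min was quantified by TMTpro 16plex LC-MS/MS with channel sums equalised. Thermal stability relative to control samples, from duplicates, is given as log2 fold change.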

**Q.** With TERF2IP (UniProt Q9NYB0) as the target, how does the log2 fold change read?
**A.** inactive: -0.119

**Q.** TBC1D23 (UniProt Q9NUY8) was tested. Which log2 fold change did it give?
**A.** inactive: -0.19

**Q.** How did the log2 fold change turn out when TFAM (UniProt Q00059) was run?
**A.** inactive: 0.015

**Q.** Which log2 fold change does the source give for TGS1 (UniProt Q96RS0) here?
**A.** inactive: -0.006

**Q.** For TENT5C (UniProt Q5VWP2), which log2 fold change is on record?
**A.** inactive: 0.075

**Q.** Which log2 fold change does the source give for TIPRL (UniProt O75663) here?
**A.** inactive: 0.043

**Q.** For TBC1D5 isoform 2 (UniProt Q92609), which log2 fold change is on record?
**A.** inactive: 0.006

**Q.** Which log2 fold change does the source give for TBC1D20 isoform 3 (UniProt Q96BZ9) here?
**A.** inactive: 0.102

**Q.** Which log2 fold change does the source give for TGFBI (UniProt Q15582) here?
**A.** inactive: -0.003

**Q.** Which log2 fold change does the source give for TJP1 (UniProt Q07157) here?
**A.** inactive: 0.005

**Q.** Which log2 fold change does the source give for TBP (UniProt P20226) here?
**A.** inactive: 0.072

**Q.** How did the log2 fold change turn out when TFDP1 (UniProt Q14186) was run?
**A.** inactive: 0.037

**Q.** Which log2 fold change does the source give for TBRG4 (UniProt Q969Z0) here?
**A.** inactive: -0.274

**Q.** With TJP2 isoform 7 (UniProt Q9UDY2) as the target, how does the log2 fold change read?
**A.** inactive: -0.091

**Q.** For TIFA (UniProt Q96CG3), which log2 fold change is on record?
**A.** inactive: 0.1

**Q.** How did the log2 fold change turn out when THYN1 (UniProt Q9P016) was run?
**A.** inactive: 0.035

**Q.** TBCD (UniProt Q9BTW9) was tested. Which log2 fold change did it give?
**A.** inactive: -0.006

**Q.** TBK1 (UniProt Q9UHD2) was tested. Which log2 fold change did it give?
**A.** inactive: 0.087

**Q.** How did the log2 fold change turn out when TBC1D24 (UniProt Q9ULP9) was run?
**A.** inactive: -0.028

**Q.** For TEX2 isoform 2 (UniProt Q8IWB9), which log2 fold change is on record?
**A.** inactive: 0.257

**Q.** Which log2 fold change does the source give for TCEAL1 isoform 2 (UniProt Q15170) here?
**A.** inactive: 0.149

**Q.** How did the log2 fold change turn out when THRAP3 (UniProt Q9Y2W1) was run?
**A.** inactive: -0.127

**Q.** Which log2 fold change does the source give for THADA (UniProt Q6YHU6) here?
**A.** inactive: -0.03

**Q.** TIMM44 (UniProt O43615) was tested. Which log2 fold change did it give?
**A.** active: -0.296

**Q.** Which log2 fold change does the source give for TIMM29 (UniProt Q9BSF4) here?
**A.** inactive: 0.021

**Q.** Which log2 fold change does the source give for TK1 (UniProt P04183) here?
**A.** inactive: 0.021

**Q.** Which log2 fold change does the source give for TIMM21 (UniProt Q9BVV7) here?
**A.** inactive: -0.205

**Q.** For TEX30 (UniProt Q5JUR7), which log2 fold change is on record?
**A.** inactive: 0.07

**Q.** With TKT, A0A0B4J1R6 as the target, how does the log2 fold change read?
**A.** inactive: 0.191

**Q.** With TCF25 (UniProt Q9BQ70) as the target, how does the log2 fold change read?
**A.** inactive: -0.021

**Q.** Which log2 fold change does the source give for TCTN3 (UniProt Q6NUS6) here?
**A.** inactive: -0.001

compound: COc1cc2ncnc(Nc3ccc(F)c(Cl)c3)c2cc1OCCCN1CCOCC1 [gefitinib]; experiment: as above
Procedure, shortened: as §1

**Q.** TERF2IP (UniProt Q9NYB0) was tested. Which log2 fold change did it give?
**A.** inactive: 0.013

**Q.** How did the log2 fold change turn out when TBC1D23 (UniProt Q9NUY8) was run?
**A.** inactive: -0.058

**Q.** With TFAM (UniProt Q00059) as the target, how does the log2 fold change read?
**A.** inactive: -0.026

**Q.** TGS1 (UniProt Q96RS0) was tested. Which log2 fold change did it give?
**A.** inactive: 0.082

**Q.** TENT5C (UniProt Q5VWP2) was tested. Which log2 fold change did it give?
**A.** inactive: 0.002

**Q.** TIPRL (UniProt O75663) was tested. Which log2 fold change did it give?
**A.** inactive: -0.034

**Q.** TFCP2 (UniProt Q12800) was tested. Which log2 fold change did it give?
**A.** inactive: -0.023

**Q.** For TBC1D5 isoform 2 (UniProt Q92609), which log2 fold change is on record?
**A.** inactive: -0.031

**Q.** Which log2 fold change does the source give for TBC1D20 isoform 3 (UniProt Q96BZ9) here?
**A.** inactive: 0.148

**Q.** How did the log2 fold change turn out when TGFBI (UniProt Q15582) was run?
**A.** inactive: -0.029

**Q.** Which log2 fold change does the source give for TJP1 (UniProt Q07157) here?
**A.** inactive: 0.038

**Q.** TFPI (UniProt P10646) was tested. Which log2 fold change did it give?
**A.** inactive: 0.074

**Q.** For TBP (UniProt P20226), which log2 fold change is on record?
**A.** inactive: 0.044

**Q.** With TFDP1 (UniProt Q14186) as the target, how does the log2 fold change read?
**A.** inactive: -0.011

**Q.** With TBRG4 (UniProt Q969Z0) as the target, how does the log2 fold change read?
**A.** inactive: -0.121

**Q.** For TJP2 isoform 7 (UniProt Q9UDY2), which log2 fold change is on record?
**A.** inactive: 0.042

**Q.** With THYN1 (UniProt Q9P016) as the target, how does the log2 fold change read?
**A.** inactive: 0.028

**Q.** TBC1D2B (UniProt Q9UPU7) was tested. Which log2 fold change did it give?
**A.** inactive: 0.133

**Q.** TBCD (UniProt Q9BTW9) was tested. Which log2 fold change did it give?
**A.** inactive: 0.022

**Q.** TBK1 (UniProt Q9UHD2) was tested. Which log2 fold change did it give?
**A.** inactive: -0.098

**Q.** With TBC1D24 (UniProt Q9ULP9) as the target, how does the log2 fold change read?
**A.** inactive: 0.007

**Q.** How did the log2 fold change turn out when TK2 isoform 6 (UniProt O00142) was run?
**A.** inactive: -0.055

**Q.** With THRAP3 (UniProt Q9Y2W1) as the target, how does the log2 fold change read?
**A.** inactive: 0.15

**Q.** For THADA (UniProt Q6YHU6), which log2 fold change is on record?
**A.** inactive: -0.031

**Q.** TCOF1 isoform 6 (UniProt Q13428) was tested. Which log2 fold change did it give?
**A.** inactive: 0.028

**Q.** For TIMM44 (UniProt O43615), which log2 fold change is on record?
**A.** inactive: -0.135

**Q.** With TCIRG1 (UniProt Q13488) as the target, how does the log2 fold change read?
**A.** inactive: -0.221

**Q.** With TIMM29 (UniProt Q9BSF4) as the target, how does the log2 fold change read?
**A.** inactive: 0.039

**Q.** How did the log2 fold change turn out when TK1 (UniProt P04183) was run?
**A.** inactive: -0.018

**Q.** Which log2 fold change does the source give for TIMM21 (UniProt Q9BVV7) here?
**A.** inactive: -0.006

**Q.** For TEX30 (UniProt Q5JUR7), which log2 fold change is on record?
**A.** inactive: -0.079

**Q.** Which log2 fold change does the source give for TKT, A0A0B4J1R6 here?
**A.** inactive: 0.019

**Q.** How did the log2 fold change turn out when TCTN3 (UniProt Q6NUS6) was run?
**A.** inactive: 0.076

**Q.** With THAP9 (UniProt Q9H5L6) as the target, how does the log2 fold change read?
**A.** inactive: -0.142
